The supplement of paper PMC4604168 (melanoma cell lines)
The other results are listed elsewhere or left out. Repeats are few or missing, and single values can be far off.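 Imaging used 1,536-well plates; nuclei positive for cleaved PARP by antibody were divided by total DNA-stained nuclei to yield the apoptosis fraction. Doses for screening kept most cells viable, and cell lines differ markedly in resting and induced cleaved-PARP levels.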

Legend:
Experiment in all cases: cleaved PARP positive nuclei fraction relative to DMSO control; melanoma cells; higher = more apoptosis
Conditions in all cases: library dose: low library concentration; 72 h
WM115 = system: WM115
WM1716 = system: WM1716
WM1745 = system: WM1745
WM3526 = system: WM3526
WM3619 = system: WM3619
WM451Lu = system: WM451Lu

| Structure (SMILES) | cleaved PARP positive nuclei fraction (WM115) | cleaved PARP positive nuclei fraction (WM1716) | cleaved PARP positive nuclei fraction (WM1745) | cleaved PARP positive nuclei fraction (WM3526) | cleaved PARP positive nuclei fraction (WM3619) | cleaved PARP positive nuclei fraction (WM451Lu) |
| --- | --- | --- | --- | --- | --- | --- |
| O=c1[nH]nc(Sc2ncc([N+](=O)[O-])s2)n1-c1ccc2c(c1)OCCO2 + C[C@]1(c2nc3c(C(N)=O)cccc3[nH]2)CCCN1 [Veliparib] (first compound 0.2 µM, partner dose 1.4 µM) | 91.7% | 66.6% | 76.6% | 55.1% | 85.9% | 69.5% |
| Cc1cn(-c2cc(NC(=O)c3ccc(C)c(Nc4nccc(-c5cccnc5)n4)c3)cc(C(F)(F)F)c2)cn1 [nilotinib] + C[C@]1(c2nc3c(C(N)=O)cccc3[nH]2)CCCN1 [Veliparib] (first compound 0.2 µM, partner dose 1.4 µM) | 92.2% | 141% | 131% | 103% | 193% | 90% |
| COc1cc([C@@H]2c3cc4c(cc3[C@@H](O[C@@H]3O[C@@H]5CO[C@@H](C)O[C@H]5[C@H](O)[C@H]3O)[C@H]3COC(=O)[C@H]23)OCO4)cc(OC)c1O [etoposide] + Cc1ccc(NC(=O)c2cccc(N(C)C)c2)cc1NC(=O)c1ccc(O)cc1 [ZM336372] (first compound 0.02 µM, partner dose 2 µM) | 92.4% | 104% | 103% | 69.7% | 102% | 56.4% |
| Cc1cn(-c2cc(NC(=O)c3ccc(C)c(Nc4nccc(-c5cccnc5)n4)c3)cc(C(F)(F)F)c2)cn1 [nilotinib] + C=CCNC1=C2C[C@@H](C)C[C@H](OC)[C@H](O)[C@@H](C)/C=C(\C)[C@H](OC(N)=O)[C@@H](OC)/C=C\C=C(/C)C(=O)NC(=CC1=O)C2=O [Tanespimycin] (first compound 0.2 µM, partner dose 0.002 µM) | 161% | 35.6% | 108% | 34.6% | 98.4% | 71.3% |
| CC[C@]1(O)C[C@H]2CN(CCc3c([nH]c4ccccc34)[C@@](C(=O)OC)(c3cc4c(cc3OC)N(C=O)[C@H]3[C@@](O)(C(=O)OC)[C@H](OC(C)=O)[C@]5(CC)C=CCN6CC[C@]43[C@@H]65)C2)C1 [vincristine] + COc1cc(N2CCC(N3CCN(C)CC3)CC2)ccc1Nc1ncc(Cl)c(Nc2ccccc2S(=O)(=O)C(C)C)n1 [NVP-TAE684] (first compound 0.0001 µM, partner dose 0.08 µM) | 1240% | 152% | 109% | 115% | 164% | 267% |
| Cc1cc(Nc2cc(N3CCN(C)CC3)nc(Sc3ccc(NC(=O)C4CC4)cc3)n2)n[nH]1 [Tozasertib] + COc1cc([C@@H]2c3cc4c(cc3[C@@H](O[C@@H]3O[C@@H]5CO[C@@H](C)O[C@H]5[C@H](O)[C@H]3O)[C@H]3COC(=O)[C@H]23)OCO4)cc(OC)c1O [etoposide] (first compound 0.006 µM, partner dose 0.02 µM) | 70% | 187% | 110% | 108% | 103% | 51.9% |
| O=C(/C=C/c1cccnc1)NCCCCC1CCN(C(=O)c2ccccc2)CC1 + C[C@@H](N)c1ccc(C(=O)Nc2ccnc3[nH]ccc23)cc1 [RKI983] (first compound 0.01 µM, partner dose 0.4 µM) | 107% | 143% | 104% | 34.3% | 122% | 103% |
| COc1cc([C@@H]2c3cc4c(cc3[C@@H](O[C@@H]3O[C@@H]5CO[C@@H](C)O[C@H]5[C@H](O)[C@H]3O)[C@H]3COC(=O)[C@H]23)OCO4)cc(OC)c1O [etoposide] + O=C(O)c1ccc2c(c1)nc(Nc1cccc(Cl)c1)c1ccncc12 [CX4945] (first compound 0.02 µM, partner dose 0.4 µM) | 33.3% | 141% | 94.1% | 58.8% | 110% | 129% |
| N#CC[C@H](C1CCCC1)n1cc(-c2ncnc3[nH]ccc23)cn1 [ruxolitinib] + O=C(CCCCCCC(=O)Nc1ccccc1)NO [vorinostat] (first compound 1 µM, partner dose 0.08 µM) | 49.2% | 39.3% | 82.7% | 71.4% | 102% | 602% |
| CC[C@]1(O)C[C@H]2CN(CCc3c([nH]c4ccccc34)[C@@](C(=O)OC)(c3cc4c(cc3OC)N(C=O)[C@H]3[C@@](O)(C(=O)OC)[C@H](OC(C)=O)[C@]5(CC)C=CCN6CC[C@]43[C@@H]65)C2)C1 [vincristine] + CCCS(=O)(=O)Nc1ccc(F)c(C(=O)c2c[nH]c3ncc(Cl)cc23)c1F [PLX4720] (first compound 0.0001 µM, partner dose 0.08 µM) | 514% | 147% | 92.4% | 86.7% | 173% | 190% |
| O=c1[nH]nc(Sc2ncc([N+](=O)[O-])s2)n1-c1ccc2c(c1)OCCO2 + CC(=O)c1c(C)c2cnc(Nc3ccc(N4CCNCC4)cn3)nc2n(C2CCCC2)c1=O [palbociclib] (first compound 0.2 µM, partner dose 0.04 µM) | 133% | 47.2% | 112% | 86.1% | 103% | 47.5% |
| CC[C@]1(O)C[C@H]2CN(CCc3c([nH]c4ccccc34)[C@@](C(=O)OC)(c3cc4c(cc3OC)N(C=O)[C@H]3[C@@](O)(C(=O)OC)[C@H](OC(C)=O)[C@]5(CC)C=CCN6CC[C@]43[C@@H]65)C2)C1 [vincristine] + Nc1nc(F)nc2c1ncn2[C@@H]1O[C@H](CO)[C@@H](O)[C@@H]1O [fludarabine] (first compound 0.0001 µM, partner dose 0.2 µM) | 1500% | 396% | 105% | 1160% | 153% | 171% |
| COc1cc([C@@H]2c3cc4c(cc3[C@@H](O[C@@H]3O[C@@H]5CO[C@@H](C)O[C@H]5[C@H](O)[C@H]3O)[C@H]3COC(=O)[C@H]23)OCO4)cc(OC)c1O [etoposide] + Cc1nc(Nc2ncc(C(=O)Nc3c(C)cccc3Cl)s2)cc(N2CCN(CCO)CC2)n1 [dasatanib] (first compound 0.02 µM, partner dose 0.004 µM) | 158% | 177% | 151% | 115% | 79.4% | 49.1% |
| O=C(Nc1cc(C(F)(F)F)cc(C(F)(F)F)c1)c1cc(Cl)ccc1O + Cn1c(=O)n(-c2ccc(C(C)(C)C#N)cc2)c2c3cc(-c4cnc5ccccc5c4)ccc3ncc21 [NVP-BEZ235] (first compound 0.016 µM, partner dose 0.004 µM) | 110% | 46.7% | 102% | 76.4% | 162% | 96.6% |
| CCCCCCCCCCCCCCCCCCOP(=O)([O-])OC1CC[N+](C)(C)CC1 [Perifosine] + Cc1ccc(Nc2nccc(N(C)c3ccc4c(C)n(C)nc4c3)n2)cc1S(N)(=O)=O [Pazopanib] (first compound 0.4 µM, partner dose 0.4 µM) | 101% | 103% | 95.8% | 122% | 111% | 96.8% |
| Cc1cn(-c2cc(NC(=O)c3ccc(C)c(Nc4nccc(-c5cccnc5)n4)c3)cc(C(F)(F)F)c2)cn1 [nilotinib] + CC(=O)c1c(C)c2cnc(Nc3ccc(N4CCNCC4)cn3)nc2n(C2CCCC2)c1=O [palbociclib] (first compound 0.2 µM, partner dose 0.04 µM) | 84.3% | 120% | 132% | 48.7% | 95.5% | 69.7% |
| COc1cc([C@@H]2c3cc4c(cc3[C@@H](O[C@@H]3O[C@@H]5CO[C@@H](C)O[C@H]5[C@H](O)[C@H]3O)[C@H]3COC(=O)[C@H]23)OCO4)cc(OC)c1O [etoposide] + C#Cc1cccc(Nc2ncnc3cc(OCCOC)c(OCCOC)cc23)c1 [erlotinib] (first compound 0.02 µM, partner dose 0.8 µM) | 142% | 143% | 102% | 167% | 109% | 92.4% |
| N#CC[C@H](C1CCCC1)n1cc(-c2ncnc3[nH]ccc23)cn1 [ruxolitinib] + O=C(O)[C@@H]1[O][Sb](=[O])([O][Sb]2(=[O])[O][C@H]([C@H](O)CO)[C@H](O)[C@H](C(=O)O)[O]2)[O][C@H]([C@H](O)CO)[C@@H]1O [stibogluconate] (first compound 1 µM, partner dose 2 µM) | 114% | 74.7% | 96.4% | 37.8% | 95.9% | 130% |
| O=C(Nc1cc(C(F)(F)F)cc(C(F)(F)F)c1)c1cc(Cl)ccc1O + O=c1[nH]nc(Sc2ncc([N+](=O)[O-])s2)n1-c1ccc2c(c1)OCCO2 [BI78D3] (first compound 0.016 µM, partner dose 0.2 µM) | 139% | 801% | 96% | 80.7% | 96.3% | 103% |
| CC[C@]1(O)C[C@H]2CN(CCc3c([nH]c4ccccc34)[C@@](C(=O)OC)(c3cc4c(cc3OC)N(C=O)[C@H]3[C@@](O)(C(=O)OC)[C@H](OC(C)=O)[C@]5(CC)C=CCN6CC[C@]43[C@@H]65)C2)C1 [vincristine] + C#Cc1cccc(Nc2ncnc3cc(OCCOC)c(OCCOC)cc23)c1 [erlotinib] (first compound 0.0001 µM, partner dose 0.8 µM) | 1850% | 433% | 157% | 264% | 216% | 119% |
| N#CC[C@H](C1CCCC1)n1cc(-c2ncnc3[nH]ccc23)cn1 [ruxolitinib] + O=C(Nc1cccc(Cl)c1)Nc1ncc(CCNc2ncnc3ccsc23)s1 [SNS314] (first compound 1 µM, partner dose 0.0008 µM) | 156% | 129% | 81.3% | 53.7% | 77.8% | 100% |
| N#CC[C@H](C1CCCC1)n1cc(-c2ncnc3[nH]ccc23)cn1 [ruxolitinib] + Nc1ncn([C@H]2C[C@H](O)[C@@H](CO)O2)c(=O)n1 [decitabine] (first compound 1 µM, partner dose 0.1 µM) | 212% | 42.7% | 109% | 41.1% | 85.9% | 63.7% |
| O=C(Nc1cc(C(F)(F)F)cc(C(F)(F)F)c1)c1cc(Cl)ccc1O + Cc1ccc(Nc2nccc(N(C)c3ccc4c(C)n(C)nc4c3)n2)cc1S(N)(=O)=O [Pazopanib] (first compound 0.016 µM, partner dose 0.4 µM) | 55.4% | 488% | 97.4% | 74.3% | 82.5% | 25.1% |
